Measured values from the supplement of paper PMC10849652.
Some of the results follow.

Amino acid sequences for entries named in this document (tags omitted). A change or cut given only in a name is not applied to a line headed by its entry.
UniProt Q96NC0: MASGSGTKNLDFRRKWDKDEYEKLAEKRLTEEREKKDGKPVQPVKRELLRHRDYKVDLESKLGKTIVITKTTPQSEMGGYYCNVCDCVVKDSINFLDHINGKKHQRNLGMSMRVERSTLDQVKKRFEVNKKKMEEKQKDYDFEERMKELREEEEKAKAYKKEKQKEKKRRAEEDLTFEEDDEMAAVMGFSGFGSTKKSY
UniProt Q9Y5V0: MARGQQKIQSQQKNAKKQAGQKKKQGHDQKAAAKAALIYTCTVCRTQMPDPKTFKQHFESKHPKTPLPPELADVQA
UniProt Q9ULU4: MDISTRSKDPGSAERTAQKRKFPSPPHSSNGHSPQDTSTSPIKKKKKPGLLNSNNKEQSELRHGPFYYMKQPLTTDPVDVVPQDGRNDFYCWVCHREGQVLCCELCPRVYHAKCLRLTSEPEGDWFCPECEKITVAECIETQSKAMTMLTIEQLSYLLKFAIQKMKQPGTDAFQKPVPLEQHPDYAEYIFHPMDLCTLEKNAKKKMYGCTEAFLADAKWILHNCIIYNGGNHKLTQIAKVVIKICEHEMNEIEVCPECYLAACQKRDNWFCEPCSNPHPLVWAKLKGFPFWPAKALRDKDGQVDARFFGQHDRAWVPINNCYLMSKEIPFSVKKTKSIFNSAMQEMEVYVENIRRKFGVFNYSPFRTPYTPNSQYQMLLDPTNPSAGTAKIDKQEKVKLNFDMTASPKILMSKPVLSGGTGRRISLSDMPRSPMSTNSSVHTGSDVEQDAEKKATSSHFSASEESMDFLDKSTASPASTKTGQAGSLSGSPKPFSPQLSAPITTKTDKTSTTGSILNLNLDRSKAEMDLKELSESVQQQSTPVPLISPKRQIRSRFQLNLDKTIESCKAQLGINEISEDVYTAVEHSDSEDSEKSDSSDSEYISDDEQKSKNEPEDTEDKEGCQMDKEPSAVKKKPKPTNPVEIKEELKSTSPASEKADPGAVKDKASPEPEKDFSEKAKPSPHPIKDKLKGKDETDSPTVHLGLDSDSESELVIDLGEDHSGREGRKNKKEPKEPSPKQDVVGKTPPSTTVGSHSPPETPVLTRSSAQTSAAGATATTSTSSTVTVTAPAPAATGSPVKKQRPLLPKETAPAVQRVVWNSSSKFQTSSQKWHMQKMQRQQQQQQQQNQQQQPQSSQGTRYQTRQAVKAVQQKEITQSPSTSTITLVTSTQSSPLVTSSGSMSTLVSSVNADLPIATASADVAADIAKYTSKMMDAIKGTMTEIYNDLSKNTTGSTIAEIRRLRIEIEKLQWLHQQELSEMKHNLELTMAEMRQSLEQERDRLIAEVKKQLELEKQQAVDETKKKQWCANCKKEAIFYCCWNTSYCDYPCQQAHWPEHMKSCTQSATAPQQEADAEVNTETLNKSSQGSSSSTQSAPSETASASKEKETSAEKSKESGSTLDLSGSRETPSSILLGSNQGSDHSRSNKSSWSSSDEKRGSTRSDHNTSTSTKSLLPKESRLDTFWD
UniProt P52747: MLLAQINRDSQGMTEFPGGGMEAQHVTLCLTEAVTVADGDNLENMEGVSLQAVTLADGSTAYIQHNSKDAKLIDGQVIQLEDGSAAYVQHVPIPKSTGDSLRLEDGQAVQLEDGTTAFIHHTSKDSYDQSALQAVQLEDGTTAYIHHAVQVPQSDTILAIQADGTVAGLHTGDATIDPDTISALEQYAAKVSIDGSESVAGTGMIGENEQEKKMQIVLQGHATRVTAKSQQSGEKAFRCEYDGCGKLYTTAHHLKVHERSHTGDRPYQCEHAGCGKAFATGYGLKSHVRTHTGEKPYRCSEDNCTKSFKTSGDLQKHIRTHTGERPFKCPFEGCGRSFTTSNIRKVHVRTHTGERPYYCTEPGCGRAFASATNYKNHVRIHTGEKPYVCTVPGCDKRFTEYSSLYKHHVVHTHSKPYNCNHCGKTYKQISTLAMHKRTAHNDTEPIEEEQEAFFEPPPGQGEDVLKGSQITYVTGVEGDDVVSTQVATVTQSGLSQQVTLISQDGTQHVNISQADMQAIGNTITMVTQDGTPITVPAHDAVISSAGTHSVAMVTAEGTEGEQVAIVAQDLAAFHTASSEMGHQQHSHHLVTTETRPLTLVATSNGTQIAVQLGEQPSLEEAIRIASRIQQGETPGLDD
UniProt P52739: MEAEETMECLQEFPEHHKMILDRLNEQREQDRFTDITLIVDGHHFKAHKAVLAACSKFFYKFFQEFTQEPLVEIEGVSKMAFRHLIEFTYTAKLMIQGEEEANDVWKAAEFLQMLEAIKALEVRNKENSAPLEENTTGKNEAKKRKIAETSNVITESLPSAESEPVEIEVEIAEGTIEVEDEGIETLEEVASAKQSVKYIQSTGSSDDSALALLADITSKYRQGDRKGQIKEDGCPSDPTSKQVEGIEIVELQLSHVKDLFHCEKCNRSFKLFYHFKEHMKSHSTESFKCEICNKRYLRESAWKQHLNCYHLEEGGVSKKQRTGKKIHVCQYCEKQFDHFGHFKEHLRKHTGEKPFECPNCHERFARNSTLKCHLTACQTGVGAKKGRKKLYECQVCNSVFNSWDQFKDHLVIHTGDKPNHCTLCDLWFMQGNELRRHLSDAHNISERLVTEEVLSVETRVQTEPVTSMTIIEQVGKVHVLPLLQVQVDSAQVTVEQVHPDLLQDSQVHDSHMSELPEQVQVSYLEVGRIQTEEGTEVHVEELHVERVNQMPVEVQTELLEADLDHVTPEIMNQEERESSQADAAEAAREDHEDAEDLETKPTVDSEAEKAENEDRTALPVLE
UniProt A7E2V4, whole entry, looked up: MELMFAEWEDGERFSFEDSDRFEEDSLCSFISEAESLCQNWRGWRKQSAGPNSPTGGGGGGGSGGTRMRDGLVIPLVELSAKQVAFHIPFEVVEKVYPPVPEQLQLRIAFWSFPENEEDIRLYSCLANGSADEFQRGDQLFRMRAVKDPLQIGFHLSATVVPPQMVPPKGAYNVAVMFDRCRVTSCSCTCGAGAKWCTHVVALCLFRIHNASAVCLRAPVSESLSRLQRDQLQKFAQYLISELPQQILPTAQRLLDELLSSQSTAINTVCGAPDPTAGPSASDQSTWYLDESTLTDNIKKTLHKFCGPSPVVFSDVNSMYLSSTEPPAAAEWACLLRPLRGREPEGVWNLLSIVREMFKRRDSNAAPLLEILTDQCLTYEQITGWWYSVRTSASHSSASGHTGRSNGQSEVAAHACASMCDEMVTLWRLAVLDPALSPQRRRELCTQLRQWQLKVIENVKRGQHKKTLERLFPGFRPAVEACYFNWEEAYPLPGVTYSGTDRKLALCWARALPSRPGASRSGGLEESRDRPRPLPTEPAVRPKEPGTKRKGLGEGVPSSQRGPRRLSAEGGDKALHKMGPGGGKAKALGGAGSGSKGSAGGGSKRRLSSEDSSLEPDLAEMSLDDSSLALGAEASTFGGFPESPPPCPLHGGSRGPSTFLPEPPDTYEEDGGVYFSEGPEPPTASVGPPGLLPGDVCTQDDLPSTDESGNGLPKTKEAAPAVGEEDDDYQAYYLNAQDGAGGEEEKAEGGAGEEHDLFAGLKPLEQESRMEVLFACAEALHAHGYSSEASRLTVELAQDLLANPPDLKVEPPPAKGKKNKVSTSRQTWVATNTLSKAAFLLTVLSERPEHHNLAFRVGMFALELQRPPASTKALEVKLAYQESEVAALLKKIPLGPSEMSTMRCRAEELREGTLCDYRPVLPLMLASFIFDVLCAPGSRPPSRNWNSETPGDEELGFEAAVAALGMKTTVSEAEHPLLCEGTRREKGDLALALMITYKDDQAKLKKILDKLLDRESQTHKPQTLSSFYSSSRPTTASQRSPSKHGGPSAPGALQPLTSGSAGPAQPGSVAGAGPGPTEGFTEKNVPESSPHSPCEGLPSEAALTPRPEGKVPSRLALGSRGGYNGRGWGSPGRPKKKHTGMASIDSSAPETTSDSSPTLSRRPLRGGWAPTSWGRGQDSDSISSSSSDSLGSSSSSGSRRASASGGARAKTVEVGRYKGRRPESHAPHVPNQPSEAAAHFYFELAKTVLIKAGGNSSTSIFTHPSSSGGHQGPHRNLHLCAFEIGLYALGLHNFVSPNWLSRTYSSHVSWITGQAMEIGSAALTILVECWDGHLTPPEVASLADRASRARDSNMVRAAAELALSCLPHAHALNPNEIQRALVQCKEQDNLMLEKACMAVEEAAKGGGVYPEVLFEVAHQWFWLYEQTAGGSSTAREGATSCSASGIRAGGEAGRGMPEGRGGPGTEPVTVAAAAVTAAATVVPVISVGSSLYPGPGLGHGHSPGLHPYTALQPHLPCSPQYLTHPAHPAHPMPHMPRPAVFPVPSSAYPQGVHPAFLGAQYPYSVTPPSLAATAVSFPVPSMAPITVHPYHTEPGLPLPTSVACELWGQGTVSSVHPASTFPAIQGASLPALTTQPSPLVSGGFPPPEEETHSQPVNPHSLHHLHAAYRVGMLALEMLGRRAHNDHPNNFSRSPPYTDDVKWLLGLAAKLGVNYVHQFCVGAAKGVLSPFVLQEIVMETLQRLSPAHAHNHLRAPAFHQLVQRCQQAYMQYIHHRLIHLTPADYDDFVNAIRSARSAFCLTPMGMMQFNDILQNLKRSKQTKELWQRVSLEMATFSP
UniProt O95218: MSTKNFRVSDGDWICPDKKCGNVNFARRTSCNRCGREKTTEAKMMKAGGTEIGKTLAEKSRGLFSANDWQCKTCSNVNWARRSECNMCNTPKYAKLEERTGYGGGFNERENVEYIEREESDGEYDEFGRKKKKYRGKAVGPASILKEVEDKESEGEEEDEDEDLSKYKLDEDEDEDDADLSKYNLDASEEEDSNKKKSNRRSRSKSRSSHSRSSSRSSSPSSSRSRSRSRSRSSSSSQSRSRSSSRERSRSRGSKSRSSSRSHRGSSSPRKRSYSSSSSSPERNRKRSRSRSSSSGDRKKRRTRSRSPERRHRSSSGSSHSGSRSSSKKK
UniProt O60232: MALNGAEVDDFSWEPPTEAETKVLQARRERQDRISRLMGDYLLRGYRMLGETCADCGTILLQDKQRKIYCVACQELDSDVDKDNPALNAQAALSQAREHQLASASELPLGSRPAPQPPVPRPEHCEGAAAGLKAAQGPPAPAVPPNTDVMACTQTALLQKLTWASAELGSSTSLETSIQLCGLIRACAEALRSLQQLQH
UniProt O15014: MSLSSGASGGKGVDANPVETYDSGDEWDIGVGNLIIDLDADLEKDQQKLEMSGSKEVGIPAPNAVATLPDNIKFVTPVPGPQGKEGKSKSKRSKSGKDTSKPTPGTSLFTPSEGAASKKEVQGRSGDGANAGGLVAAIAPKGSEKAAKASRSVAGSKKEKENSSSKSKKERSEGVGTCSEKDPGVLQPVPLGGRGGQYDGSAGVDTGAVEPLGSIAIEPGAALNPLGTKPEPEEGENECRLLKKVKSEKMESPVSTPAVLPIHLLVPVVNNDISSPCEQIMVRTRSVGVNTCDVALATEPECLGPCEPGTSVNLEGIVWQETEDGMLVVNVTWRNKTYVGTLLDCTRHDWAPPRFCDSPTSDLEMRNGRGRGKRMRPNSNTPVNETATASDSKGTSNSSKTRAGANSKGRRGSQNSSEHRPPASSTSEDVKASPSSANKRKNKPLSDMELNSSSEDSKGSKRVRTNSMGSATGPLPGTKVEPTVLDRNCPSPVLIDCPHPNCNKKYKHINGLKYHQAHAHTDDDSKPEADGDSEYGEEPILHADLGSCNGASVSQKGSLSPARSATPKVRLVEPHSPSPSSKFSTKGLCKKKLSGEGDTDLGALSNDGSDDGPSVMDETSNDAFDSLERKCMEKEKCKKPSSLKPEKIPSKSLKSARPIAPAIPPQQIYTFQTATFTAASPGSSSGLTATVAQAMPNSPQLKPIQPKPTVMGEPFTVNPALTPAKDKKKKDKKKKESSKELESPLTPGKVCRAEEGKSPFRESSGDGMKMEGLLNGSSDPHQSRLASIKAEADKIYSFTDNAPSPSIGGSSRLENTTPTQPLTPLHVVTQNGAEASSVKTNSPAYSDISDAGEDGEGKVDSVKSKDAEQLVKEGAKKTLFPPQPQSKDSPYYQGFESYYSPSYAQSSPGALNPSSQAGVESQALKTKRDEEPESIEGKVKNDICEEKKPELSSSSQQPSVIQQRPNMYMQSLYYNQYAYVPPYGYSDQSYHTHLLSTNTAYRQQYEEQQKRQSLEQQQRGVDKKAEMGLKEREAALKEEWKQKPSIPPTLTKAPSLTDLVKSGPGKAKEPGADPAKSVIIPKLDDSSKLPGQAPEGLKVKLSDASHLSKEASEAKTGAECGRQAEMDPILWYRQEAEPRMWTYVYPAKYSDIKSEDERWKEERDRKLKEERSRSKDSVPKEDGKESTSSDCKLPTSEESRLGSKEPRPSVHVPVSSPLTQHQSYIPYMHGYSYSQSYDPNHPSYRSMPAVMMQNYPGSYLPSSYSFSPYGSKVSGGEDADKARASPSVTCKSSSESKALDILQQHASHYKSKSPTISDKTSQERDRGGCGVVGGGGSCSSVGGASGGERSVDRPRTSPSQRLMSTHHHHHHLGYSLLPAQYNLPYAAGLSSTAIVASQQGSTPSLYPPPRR

Assays:
Assay in all cases: log2 fold change, soluble protein after heating vs DMSO (PISA); higher = thermal stabilisation; K562 lysate, 10 uM; active = over 0.2 and 3.5 SD of the protein, either way, in both replicates (recomputed)
erlotinib = compound: C#Cc1cccc(Nc2ncnc3cc(OCCOC)c(OCCOC)cc23)c1 [erlotinib]
Outline: (§1)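 K562 pellets were dounce-homogenised in PBS pH 7.4 containing 1 mM MgCl2, and the crude extract, at 1 mg/mL protein, was exposed to 10 μM compound for 30 min. Aliquots were heated for 3 min across 48°C-58°C, pooled, brought to 0.5% NP-40 at 4°C and spun at 21,000xg for 90 min, with the supernatant taken as soluble protein. TMTpro 16plex LC-MS/MS with equalised channel sums quantified that protein. Values are log-two fold changes in thermal stability relative to solvent controls, taken from duplicates.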

[1] = compound: C/C(=N\NC(=O)C1=CC(=CC=C1)S(=O)(=O)N2CCOCC2)/C3=C(C=CC(=C3)Cl)O
Outline: as §1

[2] = compound: C1=CC(=CC=C1C2=NC3=C(N2)C=C(C=C3)C(=O)N)OC4=CC=C(C=C4)Cl
Outline: as §1

[3] = compound: C1=CC2=C(C=CC(=C2)/C=C\3/C(=O)NC(=NCC4=CC=CS4)S3)N=C1
Outline: as §1

[4] = compound: C1=CC2=NC=CN=C2C=C1/C=C/3\C(=O)NC(=O)S3
Outline: as §1

[5] = compound: C1=CC=C(C=C1)C2=NC(=C(N2)C3=CC=NC=C3)C4=CC(=C(C=C4)Cl)O
Outline: as §1

[6] = compound: C1=CC=C2C(=C1)C3=NNC4=CC=CC(=C43)C2=O
Outline: as §1

[7] = compound: C1CCN(C1)C(=O)NC2=CC=CC(=C2)NC3=NC=C(C(=N3)NCCC4=CN=CN4)Br
Outline: as §1

[8] = compound: C1CN(CCC1(CC2=CC=C(C=C2)Cl)N)C3=NC=NC4=C3C=CN4
Outline: as §1

IRAK-1-4 Inhibitor I = compound: C1COCCN1CCN2C3=CC=CC=C3N=C2NC(=O)C4=CC(=CC=C4)[N+](=O)[O-] [IRAK-1-4 Inhibitor I]
Outline: as §1

Target | log2 fold change (erlotinib) | log2 fold change [1] | log2 fold change [2] | log2 fold change [3] | log2 fold change [4] | log2 fold change [5] | log2 fold change [6] | log2 fold change [7] | log2 fold change [8] | log2 fold change (IRAK-1-4 Inhibitor I)
ZMYM4 (UniProt Q5VZL5) | inactive: -0.023 | inactive: -0.068 | inactive: 0.027 | inactive: 0.073 | inactive: -0.099 | inactive: 0.042 | inactive: -0.088 | inactive: -0.09 | inactive: 0.015 | inactive: 0.005
ZMAT2 (UniProt Q96NC0) | inactive: 0.025 | inactive: -0.037 | inactive: 0.025 | inactive: -0.023 | inactive: -0.026 | inactive: 0.023 | inactive: 0.055 | inactive: -0.007 | inactive: -0.048 | inactive: 0.066
ZNF706 (UniProt Q9Y5V0) | inactive: 0 | inactive: -0.042 | inactive: 0.026 | inactive: 0.003 | inactive: -0.045 | inactive: -0.041 | inactive: -0.013 | inactive: 0.006 | inactive: -0.043 | inactive: 0.004
ZNF672 (UniProt Q499Z4) | inactive: -0.086 | inactive: 0 | inactive: -0.054 | inactive: -0.069 | inactive: -0.081 | inactive: -0.018 | inactive: 0.105 | inactive: -0.013 | inactive: 0.054 | inactive: 0.021
ZNF787 (UniProt Q6DD87) | inactive: -0.041 | inactive: 0.074 | inactive: 0.003 | inactive: -0.032 | inactive: -0.044 | inactive: -0.026 | inactive: -0.31 | inactive: -0.018 | inactive: -0.04 | inactive: 0.03
ZZZ3 (UniProt Q8IYH5) | inactive: 0.111 | inactive: 0.024 | inactive: -0.083 | inactive: 0.019 | inactive: 0.015 | inactive: 0.085 | inactive: 0.04 | inactive: 0.019 | inactive: -0.019 | inactive: -0.022
ZNF277 (UniProt Q9NRM2) | inactive: 0.011 | inactive: 0.016 | inactive: -0.044 | inactive: -0.06 | inactive: -0.003 | inactive: 0.006 | inactive: 0.003 | inactive: -0.024 | inactive: -0.021 | inactive: 0.01
ZMYND8 isoform 19 (UniProt Q9ULU4) | inactive: -0.012 | inactive: -0.058 | inactive: 0.023 | inactive: 0.011 | inactive: -0.037 | inactive: 0.024 | inactive: -0.077 | inactive: -0.021 | inactive: 0.018 | inactive: -0.025
ZNF579 (UniProt Q8NAF0) | inactive: -0.031 | inactive: 0.288 | inactive: -0.017 | inactive: -0.189 | inactive: -0.081 | inactive: -0.004 | inactive: 0.106 | inactive: -0.021 | inactive: -0.029 | inactive: 0.017
ZMYM1 (UniProt Q5SVZ6) | inactive: -0.041 | inactive: -0.027 | inactive: -0.002 | inactive: 0.021 | inactive: 0.007 | inactive: -0.036 | inactive: 0.041 | inactive: 0.043 | inactive: 0.025 | inactive: -0.008
ZNHIT3 (UniProt Q15649) | inactive: -0.054 | inactive: -0.664 | inactive: 0.023 | inactive: -0.058 | inactive: -0.029 | inactive: -0.066 | inactive: 0.048 | inactive: -0.08 | inactive: 0.162 | inactive: 0.039
ZPR1 (UniProt O75312) | inactive: -0.031 | inactive: 0 | inactive: -0.007 | inactive: -0.004 | inactive: -0.01 | inactive: 0.02 | inactive: 0.006 | inactive: 0.018 | inactive: 0.014 | inactive: 0.008
ZNHIT2 (UniProt Q9UHR6) | inactive: -0.289 | inactive: 0.174 | inactive: 0.096 | inactive: 0 | inactive: 0.023 | inactive: 0.051 | inactive: -0.036 | inactive: -0.029 | inactive: -0.041 | inactive: -0.062
ZHX1 (UniProt Q9UKY1) | inactive: 0.02 | inactive: -0.094 | inactive: 0.082 | inactive: 0.051 | inactive: -0.027 | inactive: -0.027 | inactive: -0.077 | inactive: -0.119 | inactive: 0.026 | inactive: -0.055
ZNF428 (UniProt M0QXZ5) | inactive: 0.006 | inactive: -0.041 | inactive: 0.035 | inactive: 0 | inactive: -0.008 | inactive: 0.039 | inactive: -0.065 | inactive: -0.05 | inactive: -0.007 | inactive: -0.027
ZNF598 isoform 3 (UniProt Q86UK7) | inactive: -0.001 | inactive: -0.003 | inactive: 0.007 | inactive: -0.007 | inactive: -0.045 | inactive: 0.006 | inactive: -0.064 | inactive: -0.036 | inactive: -0.002 | inactive: 0.029
ZNFX1 (UniProt Q9P2E3) | inactive: 0.088 | inactive: -0.063 | inactive: -0.158 | inactive: 0.041 | inactive: 0.033 | inactive: -0.049 | inactive: -0.043 | inactive: 0.214 | inactive: 0.105 | inactive: 0.025
ZNF143 (UniProt P52747) | inactive: -0.029 | inactive: -0.037 | inactive: 0.01 | inactive: 0.039 | inactive: -0.005 | inactive: 0.018 | inactive: -0.034 | inactive: 0.007 | inactive: -0.002 | inactive: -0.002
ZW10 (UniProt O43264) | inactive: 0.046 | inactive: -0.013 | inactive: 0.003 | inactive: 0.026 | inactive: -0.005 | inactive: 0.001 | inactive: -0.037 | inactive: -0.044 | inactive: 0.017 | inactive: 0.027
ZNF131 (UniProt P52739) | inactive: 0.011 | inactive: 0.022 | inactive: -0.007 | inactive: -0.035 | inactive: 0.067 | inactive: 0.005 | inactive: -0.039 | inactive: 0.005 | inactive: 0.001 | inactive: 0.01
ZSWIM8 isoform 4 (UniProt A7E2V4) | inactive: 0.025 | active: 0.508 | inactive: -0.053 | inactive: 0.02 | inactive: -0.044 | inactive: -0.021 | inactive: -0.163 | inactive: -0.239 | inactive: 0.109 | inactive: -0.122
ZRANB2 (UniProt O95218) | inactive: -0.017 | inactive: -0.009 | inactive: 0.024 | inactive: -0.025 | inactive: 0.005 | inactive: 0.004 | inactive: 0.023 | inactive: 0.021 | inactive: 0.011 | inactive: 0.01
ZNRD2 (UniProt O60232) | inactive: 0.089 | inactive: -0.009 | inactive: 0.02 | inactive: 0.068 | inactive: -0.02 | inactive: 0.037 | inactive: 0.072 | inactive: -0.025 | inactive: 0.057 | inactive: 0
ZNF609 (UniProt O15014) | inactive: -0.035 | inactive: -0.013 | inactive: 0.028 | inactive: -0.029 | inactive: -0.053 | inactive: -0.023 | inactive: -0.109 | inactive: -0.008 | inactive: 0.026 | inactive: -0.005
ZNF239 (UniProt Q16600) | inactive: 0.051 | inactive: -0.157 | inactive: 0.007 | inactive: -0.16 | inactive: -0.054 | inactive: -0.071 | inactive: 0.032 | inactive: 0.098 | inactive: 0.163 | inactive: 0.051
ZNF24 (UniProt P17028) | inactive: 0.054 | inactive: -0.088 | inactive: -0.021 | inactive: -0.024 | inactive: -0.092 | inactive: -0.007 | inactive: 0.061 | inactive: -0.018 | inactive: 0.003 | inactive: 0.071
ZKSCAN3 (UniProt Q9BRR0) | inactive: 0.026 | inactive: -0.091 | inactive: 0.14 | inactive: -0.198 | inactive: 0.033 | inactive: -0.034 | inactive: 0.07 | inactive: -0.044 | inactive: -0.019 | inactive: -0.335
ZNF618 (UniProt Q5T7W0) | inactive: 0.062 | inactive: 0.059 | inactive: 0.002 | inactive: 0.004 | inactive: -0.02 | inactive: 0.025 | inactive: 0.029 | inactive: 0.001 | inactive: 0.016 | inactive: -0.01
ZNF217 (UniProt O75362) | inactive: -0.014 | inactive: -0.043 | inactive: 0.06 | inactive: -0.132 | inactive: -0.004 | inactive: 0.027 | inactive: -0.162 | inactive: -0.014 | inactive: 0.028 | inactive: 0.007
hCG_1984214 (UniProt I3L0E3) | inactive: 0.025 | inactive: -0.037 | inactive: 0.008 | inactive: 0.046 | inactive: 0.021 | inactive: -0.01 | inactive: -0.006 | inactive: 0.034 | inactive: -0.01 | inactive: -0.016

A different layout for some results above.

| Target | log2 fold change (erlotinib) | log2 fold change [1] | log2 fold change [2] | log2 fold change [3] | log2 fold change [4] | log2 fold change [5] | log2 fold change [6] | log2 fold change [7] | log2 fold change [8] | log2 fold change (IRAK-1-4 Inhibitor I) |
| --- | --- | --- | --- | --- | --- | --- | --- | --- | --- | --- |
| ZMYND8 isoform 19 (UniProt Q9ULU4) | inactive: -0.012 | inactive: -0.058 | inactive: 0.023 | inactive: 0.011 | inactive: -0.037 | inactive: 0.024 | inactive: -0.077 | inactive: -0.021 | inactive: 0.018 | inactive: -0.025 |
| ZNF579 (UniProt Q8NAF0) | inactive: -0.031 | inactive: 0.288 | inactive: -0.017 | inactive: -0.189 | inactive: -0.081 | inactive: -0.004 | inactive: 0.106 | inactive: -0.021 | inactive: -0.029 | inactive: 0.017 |
| ZNHIT3 (UniProt Q15649) | inactive: -0.054 | inactive: -0.664 | inactive: 0.023 | inactive: -0.058 | inactive: -0.029 | inactive: -0.066 | inactive: 0.048 | inactive: -0.08 | inactive: 0.162 | inactive: 0.039 |
| ZNF598 isoform 3 (UniProt Q86UK7) | inactive: -0.001 | inactive: -0.003 | inactive: 0.007 | inactive: -0.007 | inactive: -0.045 | inactive: 0.006 | inactive: -0.064 | inactive: -0.036 | inactive: -0.002 | inactive: 0.029 |
| ZNRD2 (UniProt O60232) | inactive: 0.089 | inactive: -0.009 | inactive: 0.02 | inactive: 0.068 | inactive: -0.02 | inactive: 0.037 | inactive: 0.072 | inactive: -0.025 | inactive: 0.057 | inactive: 0 |
| ZNF239 (UniProt Q16600) | inactive: 0.051 | inactive: -0.157 | inactive: 0.007 | inactive: -0.16 | inactive: -0.054 | inactive: -0.071 | inactive: 0.032 | inactive: 0.098 | inactive: 0.163 | inactive: 0.051 |
| ZNF618 (UniProt Q5T7W0) | inactive: 0.062 | inactive: 0.059 | inactive: 0.002 | inactive: 0.004 | inactive: -0.02 | inactive: 0.025 | inactive: 0.029 | inactive: 0.001 | inactive: 0.016 | inactive: -0.01 |
